In publication PMC4299600:
These are yes or no findings as the source states them, for the method shown. In cells and extracts the contact can be indirect. Some entries that bind do so weakly or less than the wild type. Where a sequence is shown, tags or fusion partners need not be part of it.

Experiments:
[1] = target: T1, GST-tagged Cka2 (CK2 subunit Cka2) (S. cerevisiae) (UniProt P19454); experiment: co-IP; GAL-inducible Cka2-GST or Cka1-GST expressed in BY4741 cka2Δ or cka1Δ cells; cells subjected to osmotic stress (0.7 N NaCl) for the indicated length of time; lysates incubated with glutathione Sepharose beads at 4°C overnight in 1x PBS, 1 mM DTT, 0.1% NP-40, 10% glycerol, protease inhibitors; immunoblot for Cdc14 and total or phospho-Hog1
T1 sequence: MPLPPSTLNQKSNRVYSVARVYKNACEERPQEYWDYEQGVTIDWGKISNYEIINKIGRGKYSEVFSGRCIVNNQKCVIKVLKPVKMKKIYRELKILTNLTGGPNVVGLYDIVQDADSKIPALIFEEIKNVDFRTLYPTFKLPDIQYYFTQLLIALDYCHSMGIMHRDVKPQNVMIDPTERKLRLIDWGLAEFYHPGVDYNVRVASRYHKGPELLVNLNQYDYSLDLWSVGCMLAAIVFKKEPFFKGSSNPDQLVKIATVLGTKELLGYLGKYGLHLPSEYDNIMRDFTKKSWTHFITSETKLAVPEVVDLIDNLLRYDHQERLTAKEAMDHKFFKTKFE

[2] = target: T2, GST-tagged Cka1 (CK2 subunit Cka1) (S. cerevisiae) (UniProt P15790); experiment: as above
T2 sequence: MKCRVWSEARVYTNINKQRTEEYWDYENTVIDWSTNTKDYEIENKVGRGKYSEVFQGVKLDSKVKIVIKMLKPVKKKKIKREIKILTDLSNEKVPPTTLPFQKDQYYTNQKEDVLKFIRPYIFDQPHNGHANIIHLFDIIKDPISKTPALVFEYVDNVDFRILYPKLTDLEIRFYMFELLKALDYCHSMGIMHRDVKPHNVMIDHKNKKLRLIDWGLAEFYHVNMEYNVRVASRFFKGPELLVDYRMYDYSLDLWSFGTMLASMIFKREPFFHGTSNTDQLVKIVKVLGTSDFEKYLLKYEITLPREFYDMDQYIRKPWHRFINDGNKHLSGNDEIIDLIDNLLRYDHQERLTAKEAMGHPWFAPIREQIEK

B1: Cdc14 phosphatase (enzyme, UniProt Q00684 1-551)
chain: MRRSVYLDNTIEFLRGRVYLGAYDYTPEDTDELVFFTVEDAIFYNSFHLDFGPMNIGHLYRFAVIFHEILNDPENANKAVVFYSSASTRQRANAACMLCCYMILVQAWTPHQVLQPLAQVDPPFMPFRDAGYSNADFEITIQDVVYGVWRAKEKGLIDLHSFNLESYEKYEHVEFGDFNVLTPDFIAFASPQEDHPKGYLATKSSHLNQPFKSVLNFFANNNVQLVVRLNSHLYNKKHFEDIGIQHLDLIFEDGTCPDLSIVKNFVGAAETIIKRGGKIAVHCKAGLGRTGCLIGAHLIYTYGFTANECIGFLRFIRPGMVVGPQQHWLYLHQNDFREWKYTTRISLKPSEAIGGLYPLISLEEYRLQKKKLKDDKRVAQNNIEGELRDLTMTPPSNGHGALSARNSSQPSTANNGSNSFKSSAVPQTSPGQPRKGQNGSNTIEDINNNRNPTSHANRKVVIESNNSDDESMQDTNGTSNHYPKVSRKKNDISSASSSRMEDNEPSATNINNAADDTILRQLLPKNRRVTSGRRTTSAAGGIRKISGSIKK
[1]
  binding: binds

B2: Hog1 kinase (enzyme, UniProt P32485 1-435)
chain: MTTNEEFIRTQIFGTVFEITNRYNDLNPVGMGAFGLVCSATDTLTSQPVAIKKIMKPFSTAVLAKRTYRELKLLKHLRHENLICLQDIFLSPLEDIYFVTELQGTDLHRLLQTRPLEKQFVQYFLYQILRGLKYVHSAGVIHRDLKPSNILINENCDLKICDFGLARIQDPQMTGYVSTRYYRAPEIMLTWQKYDVEVDIWSAGCIFAEMIEGKPLFPGKDHVHQFSIITDLLGSPPKDVINTICSENTLKFVTSLPHRDPIPFSERFKTVEPDAVDLLEKMLVFDPKKRITAADALAHPYSAPYHDPTDEPVADAKFDWHFNDADLPVDTWRVMMYSEILDFHKIGGSDGQIDISATFDDQVAAATAAAAQAQAQAQAQVQLNMAAHSHNGAGTTGNDHSDIAGGNKVSDHVAANDTITDYGNQAIQYANEFQQ
[2]
  binding: binds
[1]
  binding: binds
